# Measured values from PubChem BioAssay AID652054 (National Center for Advancing Translational Sciences (NCATS), 2013).
# Chains of the proteins cited; added tags and fusions are not shown.
# UniProt P35462, whole entry, looked up: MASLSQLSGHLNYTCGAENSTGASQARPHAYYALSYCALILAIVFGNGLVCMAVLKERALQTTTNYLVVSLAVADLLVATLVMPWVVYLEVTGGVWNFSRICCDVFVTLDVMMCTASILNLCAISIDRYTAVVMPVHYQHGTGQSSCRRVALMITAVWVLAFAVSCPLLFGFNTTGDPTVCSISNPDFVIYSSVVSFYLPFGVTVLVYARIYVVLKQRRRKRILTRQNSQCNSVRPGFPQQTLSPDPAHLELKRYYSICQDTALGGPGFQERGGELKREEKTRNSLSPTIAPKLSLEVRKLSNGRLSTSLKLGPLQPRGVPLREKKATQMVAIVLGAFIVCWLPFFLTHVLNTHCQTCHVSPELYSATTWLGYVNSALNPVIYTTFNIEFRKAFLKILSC
# In all, about 360,000 compounds went through this assay and about 9,100 (2.5%) were called active. The shares of active, inactive and inconclusive entries below differ from those in the screen. Rule as the data show it: active = max response below about -50%; inconclusive = no clear call, values can overlap the other calls; inactive = above that.
# Target: D(3) dopamine receptor (Homo sapiens) (UniProt P35462)
# Experiment: qHTS of D3 Dopamine Receptor Antagonist: qHTS
# Conditions: D3R cells, DiscoveRx beta-arrestin luminescence, antagonist mode; stronger effect = lower value
# Procedure, shortened: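 Cells plated overnight at 1500 cells/well, then exposed to library compounds with dopamine controls for 90 minutes at 37 degrees C. DiscoveRx reagent added for 30–60 minutes at room temperature; luminescence read, quantitative HTS format.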
# % is scaled to controls: 0 for no effect and ±100 for the full control effect.
row,SMILES,"max response, negative = inhibition"
1,CCc1nc(C)c(C#N)c2cc(OC)c(OC)cc12,inactive: 10.1%
2,Cc1cc(NC(=O)CCN2CCCCC2)ccc1Br,inactive: -21.9%
3,Cc1ccc(NC(=O)NNC(=O)Cn2nc(-c3ccccc3)c(-c3ccccc3)c(C#N)c2=O)cc1,inconclusive: -30.9%
4,Cc1ccc(NS(=O)(=O)c2cccc(C(=O)NC3CCN(Cc4ccccc4)CC3)c2)cc1,inconclusive: -42.6%
5,CC(C)(C)c1ccc(C(=O)N2CCN(Cc3ccccc3)CC2)cc1,inconclusive: -43.2%
6,CCc1ccc(NC(=O)N(CCN2CCOCC2)Cc2ccc3c(c2)CCCN3CC)cc1,inconclusive: -33.3%
7,O=C(CN1CCc2ccccc2C1)Nc1ccccc1F,inconclusive: -46.3%
8,CCc1nc2c(OCC3COc4ccccc4O3)cccn2c1N(C)C(=O)c1cccs1 (configuration not stated),inconclusive: -38.9%
9,Cc1ccc(-c2csc(NC(=O)c3ccc([N+](=O)[O-])o3)n2)cc1,inconclusive: -32.7%
10,Cc1cc(Br)cc(C=Nc2ccc(N3CCOCC3)cc2)c1O,inconclusive: -33.9%
11,CCN(CC)S(=O)(=O)c1cccc(NC(=O)C2SC(=Nc3ccc(C)cc3C)C(C(=O)NCC3CCCO3)=C2N)c1 (configuration not stated),inactive: -9.85%
12,O=C(Nc1ccc(S(=O)(=O)N2CCOCC2)cc1)C1CCCCC1,inconclusive: -32.1%
13,O=C(c1ccccc1)N1CCN(CC(O)COC2CCCCC2)CC1 (configuration not stated),inconclusive: -42.3%
14,CN(C)CCN1CCN(C2CN(Cc3cn(Cc4ccc(C(F)(F)F)cc4)nn3)S(=O)(=O)C2)CC1 (configuration not stated),inconclusive: -47%
15,COc1ccc(C2CC(c3ccco3)n3ncnc3N2)cc1 (configuration not stated),inconclusive: -30%
16,O=C(/C=C/c1ccccc1)NC(NC(=S)Nc1cccc(Cl)c1)C(Cl)(Cl)Cl (configuration not stated),inconclusive: -45.8%
17,O=C1/C(=C/c2ccccc2O)SC(=S)N1Cc1cccnc1,inconclusive: -40.7%
18,CN(C)CCn1c2c(c(SCC(=O)NCc3ccccc3)nc1=O)CCCC2,inactive: 8.51%
19,N#CC1=C(N)NC(SCc2ccccc2)=C(C#N)C12CCCC2,inactive: -4.86%
20,Cc1cc(C)c[n+](CC(=O)c2cc3ccccc3oc2=O)c1,inconclusive: -32.7%
21,CC(C)(C)c1cc(-c2nc(N)nc(N)n2)c(O)c(C(C)(C)C)c1,inactive: 0%
22,CCn1c2ccccc2c2nnc(SCC(=O)NC(CC(C)C)C(=O)OC)nc21 (configuration not stated),inconclusive: -39%

row,SMILES,"max response, negative = inhibition"
1,CCc1cccc(CC)c1NC(=O)CN1C2CCCC1CC(NC(=O)Nc1cccc(OC)c1)C2 (configuration not stated),inconclusive: -48.5%
2,CC1CCN(C(C)C(=O)Nc2ccccc2-c2ccccc2)CC1 (configuration not stated),active: -56%
3,COc1ccc(NC(=O)COc2ccc3c(C)cc(=O)oc3c2)cc1S(=O)(=O)N1CCCCC1,inconclusive: -30.1%
4,O=C(COC(=O)c1cc(S(=O)(=O)N2CCOCC2)ccc1O)NCCc1ccccc1,inconclusive: -34.3%
5,O=[N+]([O-])c1cc(S(=O)(=O)N2CCCC2)ccc1OCc1ccccc1,inconclusive: -33.8%
6,O=C1Nc2ccc(F)cc2C12Nc1ccccc1-c1nnc(SCc3ccccc3)nc1O2 (configuration not stated),active: -80.6%
7,CCCn1c(SC(C)C(=O)NCC2CCCO2)nc2cc(Cl)ccc2c1=O (configuration not stated),inconclusive: -34.5%
8,O=C(c1sc2cc(F)ccc2c1Cl)N1CCN(c2ccccc2)CC1,inconclusive: -37%
9,O=C(CN1CCN(Cc2ccc(F)cc2)C1=O)NCc1cccs1,inconclusive: -33.1%
10,O=C(CSc1ccc(F)cc1)Nc1ccc2c(c1)C(=O)NC2=O,inconclusive: -31.9%
11,COc1ccc(N2CCN(C(=O)COCc3cc(-c4ccc5c(c4)OCO5)on3)CC2)cc1,inactive: -9.54%
12,CC1(C)CC(=O)/C(=C(\O)Cc2ccccc2)C(=NCCCCCC(=O)O)C1,inconclusive: -41.3%
13,Cc1cc(=O)[nH]c(N2CCOCC2)n1,inconclusive: -33.7%
14,O=C1CC(=C2c3ccccc3-c3ccccc32)C(=O)N1CCCCN1CCN(c2ccccc2)CC1,active: -55%
15,CCOC(=O)C1(CCOc2ccccc2)CCN(Cc2ccc(OC)c(COC)c2)CC1,inconclusive: -34%
16,O=C(CN1CCCCC1)NN(Cc1ccccc1)c1ccccc1,inconclusive: -37.5%
17,CN1C(=O)C(O)(CC(=O)c2ccccc2O)c2cc(Br)ccc21 (configuration not stated),inconclusive: -44.6%
18,COc1ccc(OC)c(NC(=O)c2nc(S(=O)(=O)Cc3ccccc3)ncc2Cl)c1,active: -104%
19,COc1ccccc1NC(=O)CN(c1ccc([N+](=O)[O-])cc1)S(=O)(=O)c1ccccc1,inconclusive: -37%
20,Fc1ccccc1NC(=S)N1CCN(C/C=C/c2ccccc2)CC1,inconclusive: -34.1%
21,Cc1ccc(S(=O)(=O)N(C)CC(=O)NNC(=O)CCNS(=O)(=O)c2cccc(C)c2)cc1,inactive: -8.73%
22,Oc1ccccc1/C=N/NC(=S)NC1CC2C=CC1C2 (configuration not stated),inactive: -12.4%

row,SMILES,"max response, negative = inhibition"
1,O=C(NCc1n[nH]c(=S)n1-c1cccc(C(F)(F)F)c1)c1ccc(S(=O)(=O)N2CCCCC2)cc1,inactive: -28.1%
2,CC1(c2ccc(OC(F)F)cc2)NC(=O)N(CC(=O)Nc2ccc(Cl)cc2F)C1=O (configuration not stated),inactive: -8.22%
3,Cc1cccc(Oc2ccc3c(c2)cc(C(=O)O)n3C)c1,inconclusive: -31.8%
4,COc1ccc(CCN(C)C2CCCN(S(=O)(=O)c3ccccc3F)C2)cc1OC (configuration not stated),inactive: 0.462%
5,CCC(C)C1Nc2ccc(C(=O)NCc3ccc4c(c3)OCO4)cc2NC1=O (configuration not stated),inconclusive: -30.9%
6,O=C(CSc1nc(-c2ccccc2)ns1)N1CCOCC1,inactive: 2.01%
7,O=C(NC1CCN(Cc2ccccc2)CC1)c1cccc(Br)c1,active: -84.5%
8,O=C(N/N=C/c1cccc(Br)c1)c1ccc(Br)cc1,inconclusive: -39.1%
9,O=C(NCC(c1ccco1)N1CCc2ccccc2C1)C(=O)Nc1ccccc1 (configuration not stated),active: -90%
10,CCCc1ncc(CN2CCCC(C(=O)Nc3ccc(-c4cccc(OC)c4)cc3)C2)cn1 (configuration not stated),inactive: -10.5%
11,CC(=O)NC1C(=O)N(Cc2ccccc2)c2ccc(Br)cc21 (configuration not stated),inconclusive: -39%
12,Cc1cccnc1NC(=O)c1ccc2nc(N)sc2c1,inconclusive: -43.8%
13,COc1ccc(C2/C(=C(/O)c3ccc4c(c3)CC(C)O4)C(=O)C(=O)N2CCN2CCOCC2)cc1 (configuration not stated),inconclusive: -39.7%
14,CCc1cccc(Nc2cc(C)nc3nc(C)nn23)c1,inconclusive: -41.7%
15,C=CC[C@H](CC(=O)OC(C)(C)C)C(=O)OC[C@H]1CCCN1C(=O)[C@H](CC=C)CC(=O)NCCO,inconclusive: -36.4%
16,COCCNC(=O)C1CCCN(C(=O)Cc2cccc3ccccc23)CC1 (configuration not stated),active: -102%
17,Cc1ccc2nc(-c3cccc(Br)c3)c(CC3CCCCC3)n2c1,inconclusive: -41%
18,Nc1nccc(-c2ccc(-n3cccc3)cc2)n1,inactive: 1.72%
19,O=C(Oc1cccc(Oc2ccccc2)c1)N1CCOCC1,inconclusive: -49.4%
20,Cc1ccc(C(=O)N/C(=C/c2ccco2)C(=O)Nc2cccc(C)c2)cc1,inactive: -15%
21,O=C(c1ccc2c3c(cccc13)CC2)C1CCCN(Cc2ccc(OCCO)cc2)C1 (configuration not stated),active: -97.4%
22,Cn1ccnc1SCC(=O)N1CCc2ccccc21,inconclusive: -43.2%

# A different layout for some results above:
row | SMILES | max response, negative = inhibition
5 | CCC(C)C1Nc2ccc(C(=O)NCc3ccc4c(c3)OCO4)cc2NC1=O (configuration not stated) | inconclusive: -30.9%
6 | O=C(CSc1nc(-c2ccccc2)ns1)N1CCOCC1 | inactive: 2.01%
7 | O=C(NC1CCN(Cc2ccccc2)CC1)c1cccc(Br)c1 | active: -84.5%
8 | O=C(N/N=C/c1cccc(Br)c1)c1ccc(Br)cc1 | inconclusive: -39.1%
9 | O=C(NCC(c1ccco1)N1CCc2ccccc2C1)C(=O)Nc1ccccc1 (configuration not stated) | active: -90%

# (further entries)

row,SMILES,"max response, negative = inhibition"
1,CC(C)=NNc1nc2c(c(=O)[nH]c(=O)n2C)n1CCCc1ccccc1,inconclusive: -34.1%
2,COC(=O)c1ccc(NC2c3ncccc3C(=O)N2Cc2cccs2)cc1 (configuration not stated),inconclusive: -32.3%
3,CCOC(=O)[C@]12CCC=C1N(Cc1ccc3c(c1)OCO3)C(=O)[C@H](CC(=O)NCCCN1CCCC1=O)C2,inactive: 1.11%
4,CC1CN(CCOc2ccccc2-c2ccccc2)CC(C)O1 (configuration not stated),inconclusive: -33.8%
5,CSc1nc(NC(C)(C)C)nc(N2CCOCC2)n1,inactive: -3.02%
6,Cc1cccc(CN(C)C[C@H]2OCc3cnnn3CCCC(=O)N([C@H](C)CO)C[C@@H]2C)c1,inactive: -13%
7,COc1ccccc1NC(=O)c1ccc(NC(=O)CN(C)Cc2ccccc2F)cc1,inactive: 19.8%
8,CC(C)N=c1cc2n(-c3ccc(Cl)cc3)c3ccccc3nc-2cc1Nc1ccc(Cl)cc1,inconclusive: -39.3%
9,COc1ccc(CN2C(=O)C(CC(=O)NCc3ccco3)CC(C(=O)N(C(C)C)C(C)C)=C2C)cc1 (configuration not stated),inconclusive: -38%
10,COc1cnc(-c2ccccn2)nc1Oc1ccc(F)cc1F,inactive: -9.3%
11,COc1ccc(NC2=C(NC(C)=O)C(=O)c3ccccc3C2=O)cc1,inconclusive: -31.8%
12,COc1ccc(NC(=O)C2CCCN(S(=O)(=O)c3cnc[nH]3)C2)cc1 (configuration not stated),inconclusive: -42.7%
13,CC(=O)c1ccc(N=Nc2ccc(N)cc2)cc1,inconclusive: -32.3%
14,O=C(O)c1ccccc1C(=O)Nc1n[nH]c(=S)s1,inconclusive: -44.8%
15,COc1cccc(NC(=O)CN2CCN(c3ccccc3F)CC2)c1,inconclusive: -36.8%
16,Cc1cc(C(=O)O)ccc1-n1c(C)cc(/C=C(/C#N)C(=O)Nc2ccccc2)c1C,inactive: -5.94%
17,COc1cccc(C(=O)NC2CCN(C(=O)N3CCCCC3)CC2)c1,inconclusive: -30.7%
18,CC(O)c1nc2ccccc2n1CCOc1ccccc1 (configuration not stated),inconclusive: -48%
19,CCOC(=O)c1c(NC(=O)CCl)sc(CN(C)C)c1-c1ccccc1,inconclusive: -34.6%
20,O=C(CCN1CCN(c2ccc(F)cc2)CC1)Nc1ccc(F)cc1,active: -81.5%
21,O=C(O)c1cccc(N/N=C/c2sc(N3CCOCC3)nc2-c2ccccc2)c1,inactive: 5.45%
